Values from PubChem BioAssay AID652243 (Drosophila RNAi Screening Center, 2013).

Assay: 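Fly genes required for human androgen receptor driven transcription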 (primary screen)
Cell system: Drosophila S2R+ cells
Reagent: long dsRNA against Drosophila genes
Timing: 72 h (48 h, then 24 h hormone)
Treatment: synthetic androgen R1881 at 10 nM for 24 h
Measurement: 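Per-well raw luminescence of the androgen-driven firefly reporter and of the Renilla control, two replicates each, without normalisation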
Direction: firefly reporter light: higher = more light from androgen-responsive reporter; Renilla control light: higher = more constitutive control signal (cell number, transfection)
Rule for the call: 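Across duplicate plates, a knock-down whose log firefly/Renilla ratio shifted a set fold down or up from the GFP/LacZ control mean was a hit; the downward cut appears as both 1.5 and 3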
Meaning of the calls: active = hit: reporter lowered or raised; inactive = no hit
The screen tested about 24,000 reagents; this is an unselected part of those that have a named target and a result. Of all reagents, 246 (1%) got an active call. 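Plates not normalised; calls are printed but the firefly/Renilla ratio behind them is not deposited; fold cut for lowering reported inconsistently.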 Raw values vary from plate to plate and are shown uncorrected. A plus sign joins genes that one reagent is predicted to hit. No sequences are given here. Not stated in the record: the amount of reagent.

target	DRSC id	firefly reporter light, replicate 1	firefly reporter light, replicate 2	Renilla control light, replicate 1	Renilla control light, replicate 2	call
Spn28Da	DRSC02162	1.50e5	2.07e5	1.48e6	1.20e6	inactive
shg	DRSC04714	7.91e5	6.34e5	2.27e6	1.93e6	inactive
shg	DRSC27751	4.53e5	2.37e5	7.70e5	7.28e5	inactive
shg	DRSC38948	7.42e5	8.80e5	1.36e6	1.29e6	inactive
bru2	DRSC01246	1.99e5	3.05e5	5.79e5	3.65e5	inactive
bru2	DRSC01247	1.11e5	2.06e5	2.47e5	1.92e5	inactive
bru2	DRSC01249	3.51e5	5.40e5	4.91e5	4.12e5	inactive
bru2	DRSC25003	4.89e5	4.29e5	7.13e5	7.02e5	inactive
CG7378	DRSC20041	1.32e5	1.25e5	4.78e5	2.46e5	inactive
CG7378	DRSC36826					inactive
CG34221	DRSC06150	3.15e5	2.16e5	2.40e6	2.08e6	inactive
LysP	DRSC08676	33357	98671	5.97e5	6.58e5	inactive
LysP	DRSC25210	5.56e5	3.11e5	5.22e5	5.01e5	inactive
CG32163	DRSC09442	6.46e5	6.16e5	2.69e6	1.86e6	inactive
CG32163	DRSC21888	9.44e5	8.04e5	1.32e6	9.48e5	inactive
CG32163	DRSC28736	4.88e5	4.59e5	1.05e6	1.09e6	inactive
cyst	DRSC02023	7.38e5	8.02e5	1.58e6	1.47e6	inactive
conu	DRSC07810	1.81e5	1.31e5	5.47e5	6.06e5	inactive
ste24c + CR30461 (retired record)	DRSC05639	2.46e5	3.07e5	3.06e5	4.87e5	inactive
ste24c + CR30461 (retired record)	DRSC07316	1.08e5	85808	1.32e6	1.32e6	inactive
CG15255	DRSC01869	1.23e5	1.62e5	1.60e6	1.94e6	inactive
CG15255	DRSC29808	3.30e5	4.30e5	8.21e5	1.14e6	inactive
Ir48a	DRSC05301	1.97e5	1.67e5	3.75e5	3.81e5	inactive
Spn31A	DRSC02780	89757	1.35e5	1.06e6	1.17e6	inactive
Spn31A	DRSC29198	9.18e5	6.42e5	1.26e6	1.18e6	inactive
CG33116	DRSC02045	1.05e6	9.71e5	1.21e6	1.37e6	inactive
CG33116	DRSC38671	8.04e5	8.84e5	2.11e6	2.71e6	inactive
CG7058	DRSC20021	2.41e5	1.25e5	1.17e6	5.52e5	inactive
CG7058	DRSC25937	3.01e5	2.40e5	5.20e5	4.41e5	inactive
lky	DRSC20682	1.35e5	1.00e5	4.62e5	4.17e5	inactive
lky	DRSC27161	3.34e5	2.76e5	4.69e5	4.42e5	inactive
tbrd-3	DRSC04295	3.25e5	3.14e5	2.26e6	1.19e6	inactive
tbrd-3	DRSC26310	3.77e5	4.27e5	6.93e5	5.74e5	inactive
Orct2	DRSC14613	29722	38953	3.82e5	4.91e5	inactive
Orct2	DRSC24714	1.08e6	1.16e6	1.44e6	1.46e6	inactive
l(1)G0289	DRSC18215	95361	93589	7.13e5	9.44e5	inactive
l(1)G0289	DRSC29200	6.37e5	3.45e5	9.04e5	8.25e5	inactive
CG7745	DRSC23103	8.23e5	9.80e5	1.65e6	1.75e6	inactive
CG7745	DRSC29591	5.93e5	6.02e5	6.90e5	6.90e5	inactive
Nprl3	DRSC11044	8.86e5	1.03e6	1.55e6	2.00e6	inactive

Reformatted: results already given.
tbrd-3 [DRSC26310] — firefly reporter light, replicate 1: 3.77e5; firefly reporter light, replicate 2: 4.27e5; Renilla control light, replicate 1: 6.93e5; Renilla control light, replicate 2: 5.74e5; call: inactive
Orct2 [DRSC14613] — firefly reporter light, replicate 1: 29722; firefly reporter light, replicate 2: 38953; Renilla control light, replicate 1: 3.82e5; Renilla control light, replicate 2: 4.91e5; call: inactive
Orct2 [DRSC24714] — firefly reporter light, replicate 1: 1.08e6; firefly reporter light, replicate 2: 1.16e6; Renilla control light, replicate 1: 1.44e6; Renilla control light, replicate 2: 1.46e6; call: inactive
